Data as given in PubChem BioAssay AID504784 (Drosophila RNAi Screening Center, 2011).
The deposit covers about 17,000 reagents; shown is a random part of those that have a named target and a result. 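Each column is one replicate's B-score; the combined score over replicates was not deposited, so single values may mislead.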 A plus sign joins genes that one reagent is predicted to hit. Further read-outs or replicates are left out here.

Assay: 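Search for regulators of lipid droplet storage in oleate-fed fly cells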 (primary screen)
System: Drosophila Kc167 embryonic cells
Reagents: long dsRNA against Drosophila genes, about 250 ng dsRNA per well
Time to read-out: 4 days
Treatment: cells fed 400 µM oleic acid bound to BSA
Detection: 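Microscope images give a droplet-to-nucleus area ratio, taken as log and converted to a screen-wide B-score; higher values mean greater lipid storage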
Reading the numbers: droplet/nuclear area B-score: higher = more stored lipid (overstorage)

gene | dsRNA | droplet/nuclear area B-score, replicate 1
CG8138 | DRSC16386 | -0.0232
NimA | DRSC01353 | 1.76
NimA | DRSC22170 | -0.508
mTor | DRSC02811 | -0.519
COX4L | DRSC04841 | 1.04
CG42233 | DRSC14328 | -0.202
CG42233 | DRSC15416 | 0.91
dre4 | DRSC08714 | -0.639
TotX | DRSC22206 | 3.81
CG9004 | DRSC08617 | -0.234
CG12985 | DRSC19505 | -0.919
swm | DRSC02012 | 0.0174
swm | DRSC21831 | -0.326
Nlg3 | DRSC12524 | -0.0493
Nlg3 | DRSC12540 | -0.04
Nlg3 | DRSC12574 | -0.219
CG14085 | DRSC10089 | 2.03
Idgf4 | DRSC18675 | -0.0838
CG12321 | DRSC14499 | -0.157
CG9416 | DRSC07339 | -1.58
CG4025 | DRSC18523 | -0.0419
CG13051 | DRSC09932 | -0.403
CG31960 | DRSC00281 | -0.242
CG12848 | DRSC04128 | 0.0119
Pex23 | DRSC10323 | -0.757
Pex23 | DRSC10645 | -0.474
CG7945 + yellow-k | DRSC10851 | 1.84
RPA3 | DRSC19658 | -0.0243
Trf5 | DRSC00412 | -2.06
CG4520 | DRSC15590 | -0.256
phu | DRSC16390 | 1.73
Tom40 | DRSC18796 | 2.68
CG15083 | DRSC06514 | 0.808
CG1602 | DRSC06601 | 1.33
